The values that follow come from article PMC10530851.

By UniProt entry, the sequences of proteins in these tests, tags left out.
UniProt P46527: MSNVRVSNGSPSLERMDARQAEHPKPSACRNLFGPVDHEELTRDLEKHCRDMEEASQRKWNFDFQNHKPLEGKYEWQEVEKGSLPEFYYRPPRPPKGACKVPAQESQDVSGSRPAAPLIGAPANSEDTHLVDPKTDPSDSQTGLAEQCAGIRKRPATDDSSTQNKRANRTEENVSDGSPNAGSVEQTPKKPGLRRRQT
UniProt Q86TM6: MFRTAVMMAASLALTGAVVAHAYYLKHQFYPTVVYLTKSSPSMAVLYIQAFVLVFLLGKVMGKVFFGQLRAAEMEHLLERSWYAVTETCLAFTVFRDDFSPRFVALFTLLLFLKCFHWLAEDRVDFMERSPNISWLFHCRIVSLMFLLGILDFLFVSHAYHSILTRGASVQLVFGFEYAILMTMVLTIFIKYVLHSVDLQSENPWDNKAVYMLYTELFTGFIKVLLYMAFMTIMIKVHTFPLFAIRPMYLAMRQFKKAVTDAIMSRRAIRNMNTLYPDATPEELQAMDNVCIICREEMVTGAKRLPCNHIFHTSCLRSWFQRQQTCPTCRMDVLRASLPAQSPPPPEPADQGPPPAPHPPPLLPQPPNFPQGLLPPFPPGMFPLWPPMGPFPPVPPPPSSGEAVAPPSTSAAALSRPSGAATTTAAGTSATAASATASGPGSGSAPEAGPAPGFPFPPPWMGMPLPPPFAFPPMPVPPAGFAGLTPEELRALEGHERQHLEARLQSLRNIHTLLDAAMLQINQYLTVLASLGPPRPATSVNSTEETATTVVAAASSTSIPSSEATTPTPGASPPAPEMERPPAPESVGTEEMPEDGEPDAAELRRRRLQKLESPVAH

Results are given in words; binding and its absence hold for the method and conditions named. In cells and extracts the contact can be indirect. Some binding calls cover weakened binding; strength is not graded here.

Assay [1] concerns the target p27 (human (endogenous in MHCC-97H and HCCLM3)) (UniProt P46527). The assay is described as follows: co-IP; endogenous proteins in MHCC-97H and HCCLM3 cell lysates; coimmunoprecipitation kit (Thermo 26149), antibody coupled to resin, lysate overnight at 4 °C, eluate analysed by Western blotting. On the technique in general: A western blot detects proteins with antibodies after separation by electrophoresis.

For assay [2], the target named is p27 (in HEK293T cells) (UniProt P46527). The assay is described as follows: co-IP; HEK293T cell lysate; coimmunoprecipitation kit (Thermo 26149), antibody coupled to resin, lysate overnight at 4 °C, eluate analysed by Western blotting.

Turning to “E3 ubiquitin ligase HRD1 (from UniProt Q86TM6 1-617) (enzyme)”, in assay [1], the binding result was “binds”.
Regarding “E3 ubiquitin ligase HRD1 (in HEK293T cells) (from UniProt Q86TM6 1-617) (enzyme)”, the binding entry in assay [2] is “binds”.
